doi:10.64898/2025.12.28.696746
These are yes or no findings as the source states them, for the method shown. Some entries that bind do so weakly or less than the wild type.

Amino acid sequences for entries named in this document (tags omitted). A change or cut given only in a name is not applied to a line headed by its entry.
UniProt O74876: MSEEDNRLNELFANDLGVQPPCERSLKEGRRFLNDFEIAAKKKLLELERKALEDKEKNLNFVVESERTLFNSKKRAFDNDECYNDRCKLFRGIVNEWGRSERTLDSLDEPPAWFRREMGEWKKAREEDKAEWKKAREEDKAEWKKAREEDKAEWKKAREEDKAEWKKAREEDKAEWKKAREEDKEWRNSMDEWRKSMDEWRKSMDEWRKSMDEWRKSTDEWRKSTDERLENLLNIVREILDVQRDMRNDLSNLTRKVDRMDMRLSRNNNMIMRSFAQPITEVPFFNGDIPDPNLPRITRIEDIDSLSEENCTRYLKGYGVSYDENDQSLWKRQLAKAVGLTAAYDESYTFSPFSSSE

Assays:
[1] = biological target: T1, Bdf1 (S. pombe) (UniProt Q9Y7N0); assay: two-hybrid; Matchmaker Gold Yeast Two-Hybrid System (Clontech); bait and prey co-expressed, selected on SD/-Leu/-Trp, spotted on SD/-Leu/-Trp/-His/-Ade (HIS3 and ADE2 reporters), 30°C, 2-4 days
T1 sequence: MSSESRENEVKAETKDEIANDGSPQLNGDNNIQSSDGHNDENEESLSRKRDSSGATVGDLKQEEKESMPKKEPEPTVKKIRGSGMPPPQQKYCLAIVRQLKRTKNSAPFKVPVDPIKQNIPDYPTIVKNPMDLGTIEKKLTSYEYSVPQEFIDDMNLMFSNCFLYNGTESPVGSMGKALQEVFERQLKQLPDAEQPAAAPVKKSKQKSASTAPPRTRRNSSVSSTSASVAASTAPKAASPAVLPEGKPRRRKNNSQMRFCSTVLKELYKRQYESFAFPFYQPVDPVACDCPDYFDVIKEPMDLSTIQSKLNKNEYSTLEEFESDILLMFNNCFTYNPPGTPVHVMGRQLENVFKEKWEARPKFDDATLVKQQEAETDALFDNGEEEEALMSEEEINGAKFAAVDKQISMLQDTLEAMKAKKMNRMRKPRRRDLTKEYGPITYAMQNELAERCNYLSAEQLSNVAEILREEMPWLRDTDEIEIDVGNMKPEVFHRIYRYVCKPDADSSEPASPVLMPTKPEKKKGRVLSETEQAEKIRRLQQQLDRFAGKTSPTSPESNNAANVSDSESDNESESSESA

[2] = biological target: Tdk1 (S. pombe) (UniProt O74876); assay: as above

| binding [2] | Substance | binding [1] |
| --- | --- | --- |
| – | C-terminal fragment of Tdk1 (Tdk1C, residues 227–357) (from UniProt O74876 227-357) (domain or fragment) | binds |
| binds | Tdk1 (from UniProt O74876 1-357) | – |
